Measured values as given in publication PMC5807055, “Atomic Structure of Type VI Contractile Sheath from Pseudomonas aeruginosa” (Structure(London, England:1993), 2018).
Results are given in words; binding and its absence hold for the method and conditions named. Some entries that bind do so weakly or less than the wild type. Sequences can lack the tags named with a protein.

Chains of the proteins cited; added tags and fusions are not shown. Residues count along the entry.
UniProt Q9I748, residues 38-498: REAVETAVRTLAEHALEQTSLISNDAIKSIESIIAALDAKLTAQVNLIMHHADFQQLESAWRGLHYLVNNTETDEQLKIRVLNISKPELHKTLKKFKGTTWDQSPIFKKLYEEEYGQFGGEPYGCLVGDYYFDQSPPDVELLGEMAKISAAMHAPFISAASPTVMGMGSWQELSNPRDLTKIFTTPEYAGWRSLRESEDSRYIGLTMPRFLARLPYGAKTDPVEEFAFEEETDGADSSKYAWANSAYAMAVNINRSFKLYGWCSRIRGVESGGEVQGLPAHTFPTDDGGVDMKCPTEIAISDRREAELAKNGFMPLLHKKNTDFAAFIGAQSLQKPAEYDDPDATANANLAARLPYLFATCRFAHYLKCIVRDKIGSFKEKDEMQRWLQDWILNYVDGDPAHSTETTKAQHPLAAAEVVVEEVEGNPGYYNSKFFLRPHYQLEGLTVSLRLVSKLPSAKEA

Biological target: TssC1, produced in P. aeruginosa (P. aeruginosa) (UniProt Q9I748)
Assay: negative-stain electron microscopy of purified sheaths; TssB1C1 sheaths (0.1 mg/ml) purified from P. aeruginosa, stained with 2 % uranyl acetate; 12-fold symmetry; both purified

B1: P. aeruginosa TssB1 (H1-T6SS sheath protein), produced in E. coli (natural protein)
chain: MGSTTSSQKFIARNRAPRVQIEYDVELYGAEKKVQLPFVMGVMADLAGKPAEPQAAVADRKFLEIDVDNFDARLKAMKPRVAFNVPNVLTGEGNLSLDITFESMDDFSPAAVARKVDSLNKLLEARTQLANLLTYMDGKTGAEEMIMKAIKDPALLQALASAPKPKDDEPQA
notes: TssB1 of the H1-T6SS cluster of Pseudomonas aeruginosa; 172 residues in total (132 traced; M1-S3 and M136-A172 not traced); also called VipA/IglA homologue; source: E. coli B834(DE3), co-produced with TssC1 from pET28-B1C1, purified as TssB1C1 tubes (size exclusion chromatography)
With B1 the binding was “binds”.
